# Values quoted from earlier work as cited in US7595003B2, “On-board water treatment and management process and apparatus” (priority 2004, dated 2009).
# At least one compound was matched to its structure with a doubt left.
# Details: cited from earlier work
smiles,measurement,value
"O=[O+][O-] [Ozone, ozone]",standard oxidation-reduction potential,2.08 volts
